The source of these data is PMC5749160, “Disruption of an RNA-binding hinge region abolishes LHP1-mediated epigenetic repression”.

In this data set the target is T1, GST-LHP1 (Arabidopsis thaliana (Col-0 cDNA)) (UniProt Q946J8).
T1 sequence (looked up, limits assumed): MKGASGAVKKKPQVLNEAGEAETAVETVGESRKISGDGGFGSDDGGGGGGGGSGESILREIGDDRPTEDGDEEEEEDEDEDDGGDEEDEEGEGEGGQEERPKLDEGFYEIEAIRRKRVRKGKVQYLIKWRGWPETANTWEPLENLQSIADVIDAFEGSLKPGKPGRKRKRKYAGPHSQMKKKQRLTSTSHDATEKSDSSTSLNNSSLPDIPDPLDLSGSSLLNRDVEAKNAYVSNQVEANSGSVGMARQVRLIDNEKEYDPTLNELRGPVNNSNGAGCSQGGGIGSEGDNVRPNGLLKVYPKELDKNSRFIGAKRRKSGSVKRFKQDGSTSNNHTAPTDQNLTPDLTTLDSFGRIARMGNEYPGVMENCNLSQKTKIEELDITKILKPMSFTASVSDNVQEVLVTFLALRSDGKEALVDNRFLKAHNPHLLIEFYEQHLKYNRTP
The data set is described as follows: EMSA. The following applies: lower affinity than ssRNA, EMSA: 20 mM HEPES-KOH pH 7.5, 100 mM KCl, 0.05% NP-40, 10 nM Cy5 probe (1 uL of 100 nM + 9 uL protein), 30 min room temperature, 1.6% TBE-agarose gel, recombinant protein, protein details: N-terminal GST (pGEX-4T-1), letters put together from the description. Background: In EMSA bound probe runs differently from free probe, usually more slowly.

The exact form of at least one protein or probe is not confirmed. The comparison behind a weaker result is the experiment's own reference, which may not be listed here. Tags and fusion partners may be left off the protein sequences shown.

Take “CTCCTCCGGCGATAAGTACGCCTTTTCCTTACCTGGGTTT [FLC 40-nt ssDNA]”: under “label: 5' Cy5, single-stranded DNA”, the binding result was “binds more weakly”.
Consider “CTCCTCCGGCGATAAGTACGCCTTTTCCTTACCTGGGTTT (double strand) [FLC 40-bp dsDNA]”, for which the binding result (label: 5' Cy5 on strand 1) is listed as “binds more weakly”.
